## Primary screen of a compound library

Amino acid sequences for entries named in this document (tags omitted). Residues count along the entry.
UniProt P9WPC5, whole entry: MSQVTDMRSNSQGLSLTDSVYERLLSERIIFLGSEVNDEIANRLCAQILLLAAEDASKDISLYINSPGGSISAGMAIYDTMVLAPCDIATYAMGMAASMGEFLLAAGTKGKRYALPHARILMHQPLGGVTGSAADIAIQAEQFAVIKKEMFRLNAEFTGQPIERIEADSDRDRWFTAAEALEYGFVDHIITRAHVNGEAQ
UniProt P9WPC3, whole entry partner: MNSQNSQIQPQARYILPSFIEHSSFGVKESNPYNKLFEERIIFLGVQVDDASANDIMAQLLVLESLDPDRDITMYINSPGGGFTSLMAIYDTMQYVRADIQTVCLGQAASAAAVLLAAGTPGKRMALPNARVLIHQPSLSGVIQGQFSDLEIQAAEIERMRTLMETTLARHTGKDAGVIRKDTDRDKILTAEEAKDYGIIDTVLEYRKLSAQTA
UniProt Q8IDJ8, 1-583: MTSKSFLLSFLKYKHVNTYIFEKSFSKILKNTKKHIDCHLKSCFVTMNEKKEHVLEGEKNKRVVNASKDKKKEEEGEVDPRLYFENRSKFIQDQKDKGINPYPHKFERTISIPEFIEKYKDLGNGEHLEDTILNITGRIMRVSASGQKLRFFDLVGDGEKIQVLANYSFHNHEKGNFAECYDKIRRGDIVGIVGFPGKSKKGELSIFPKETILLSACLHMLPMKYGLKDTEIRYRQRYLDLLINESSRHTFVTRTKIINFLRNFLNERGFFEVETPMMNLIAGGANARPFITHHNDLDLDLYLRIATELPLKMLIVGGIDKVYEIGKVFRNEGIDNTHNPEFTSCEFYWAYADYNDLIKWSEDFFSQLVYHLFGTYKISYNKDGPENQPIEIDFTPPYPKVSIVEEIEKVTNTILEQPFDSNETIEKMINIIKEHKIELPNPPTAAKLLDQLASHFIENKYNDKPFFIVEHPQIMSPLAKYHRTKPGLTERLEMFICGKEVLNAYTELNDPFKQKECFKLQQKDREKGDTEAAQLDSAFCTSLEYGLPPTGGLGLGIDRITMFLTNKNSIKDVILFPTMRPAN
UniProt P9WFT3, whole entry: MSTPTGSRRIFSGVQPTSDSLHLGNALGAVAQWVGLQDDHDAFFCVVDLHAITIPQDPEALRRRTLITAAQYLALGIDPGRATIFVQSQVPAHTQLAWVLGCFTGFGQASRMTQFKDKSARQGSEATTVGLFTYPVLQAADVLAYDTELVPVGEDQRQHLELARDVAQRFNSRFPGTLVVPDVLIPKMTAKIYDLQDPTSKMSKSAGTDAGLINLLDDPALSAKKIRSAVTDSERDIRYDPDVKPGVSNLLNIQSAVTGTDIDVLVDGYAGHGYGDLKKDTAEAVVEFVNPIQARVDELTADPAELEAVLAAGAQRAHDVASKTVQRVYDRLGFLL
UniProt A4I591, 1-473: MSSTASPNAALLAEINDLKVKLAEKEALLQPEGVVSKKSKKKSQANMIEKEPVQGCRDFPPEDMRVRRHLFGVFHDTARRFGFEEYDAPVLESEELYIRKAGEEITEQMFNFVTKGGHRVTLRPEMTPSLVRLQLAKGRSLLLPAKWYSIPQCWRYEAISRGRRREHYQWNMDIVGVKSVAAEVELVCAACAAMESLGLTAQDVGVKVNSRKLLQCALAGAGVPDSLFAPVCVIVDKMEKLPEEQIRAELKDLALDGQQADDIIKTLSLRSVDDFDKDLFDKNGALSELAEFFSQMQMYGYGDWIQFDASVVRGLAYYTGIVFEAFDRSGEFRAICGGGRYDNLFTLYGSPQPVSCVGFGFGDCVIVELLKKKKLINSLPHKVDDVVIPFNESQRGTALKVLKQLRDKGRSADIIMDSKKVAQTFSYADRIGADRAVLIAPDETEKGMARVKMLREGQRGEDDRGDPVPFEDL
UniProt Q4DA54, 1-478: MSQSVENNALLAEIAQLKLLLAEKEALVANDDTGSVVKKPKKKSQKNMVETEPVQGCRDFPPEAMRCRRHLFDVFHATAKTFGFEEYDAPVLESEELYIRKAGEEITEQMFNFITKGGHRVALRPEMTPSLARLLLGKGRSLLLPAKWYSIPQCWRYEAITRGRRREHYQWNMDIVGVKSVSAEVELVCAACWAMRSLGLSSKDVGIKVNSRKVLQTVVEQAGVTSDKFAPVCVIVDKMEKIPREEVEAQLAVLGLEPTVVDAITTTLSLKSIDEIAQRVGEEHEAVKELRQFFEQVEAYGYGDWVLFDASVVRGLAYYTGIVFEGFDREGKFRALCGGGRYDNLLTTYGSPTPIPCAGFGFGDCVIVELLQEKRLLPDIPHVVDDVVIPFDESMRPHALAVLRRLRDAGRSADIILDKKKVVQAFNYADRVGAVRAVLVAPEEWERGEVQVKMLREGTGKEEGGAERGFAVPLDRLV

The values are deposited in ChEMBL (CHEMBL3988442, “University of Dundee, Small-Polar-MMV Screening Library” (2021)).

ClpP1P2: 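Protease assay of ClpP1P2, read by the AMC dye that it sets free. Target: ClpP1P2, Mycobacterium tuberculosis (UniProt P9WPC5 and UniProt P9WPC3). Compounds at 50 µM. Higher reads as stronger inhibition, judged from the few compounds that gave an IC50. Most other retested compounds had strongly negative values. About 69,000 compounds were tested under these conditions; 0.015% (about 10) showed 50% or more at least once.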
PfKRS1: 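Lysine-tRNA ligase, Plasmodium falciparum 3D7 (UniProt Q8IDJ8). Enzyme assay of the cytosolic lysyl-tRNA synthetase in 384-well plates, read by luminescence. Tested at 30 µM. Direction is inferred from only a few compounds that gave an IC50; most scored high, so higher reads as stronger inhibition. Size under these conditions: about 69,000 compounds, about 49 of them at 50% or above in at least one test.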
MtTrpRS: 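Enzyme assay of tryptophanyl-tRNA synthetase; the read-out is not stated. Target: Tryptophan-tRNA ligase, Mycobacterium tuberculosis (UniProt P9WFT3). Compounds at 10 µM. Higher most likely means stronger inhibition; the record gives no direction and few retests gave an IC50. About 65,000 compounds were tested under these conditions; 0.098% (about 64) showed 50% or more at least once.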
LiHisRS: 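Histidine-tRNA ligase, Leishmania infantum (UniProt A4I591). Enzyme assay of histidyl-tRNA synthetase; the read-out is not stated. Concentration: 30 µM. The record gives no direction; compounds that gave an IC50 in retests scored well above the rest, so higher reads as stronger inhibition. The assay is labelled LdHisRS but filed under L. infantum. Of about 69,000 compounds tested this way, about 410 (0.6%) reached 50% or more in at least one test.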
TcHisRS: 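Histidine-tRNA ligase, Trypanosoma cruzi CL Brener (UniProt Q4DA54). Enzyme assay of histidyl-tRNA synthetase; the read-out is not stated. Tested at 30 µM. Higher reads as stronger inhibition (inferred: compounds with an IC50 in retests scored well above the rest). Of about 69,000 compounds tested this way, about 31 (0.045%) reached 50% or more in at least one test.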
Leishmania in macrophages: 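Cell assay of Leishmania donovani living inside macrophages; the read-out is not stated. Compounds at 30 µM. Higher reads as stronger inhibition (inferred: compounds with an IC50 in retests scored well above the rest). About 69,000 compounds were tested under these conditions; 1.5% (about 1,000) showed 50% or more at least once.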

Each number is a percent effect as filed.
How 0% and 100% were set is not recorded. Most values in the screen are low, and negative values occur.
The compounds are a random part of those screened.
A dash means the value is not listed here; it may have been measured.

* CC(C)c1nc(C2CCCN(C(=O)Cn3ccccc3=O)C2)no1 (configuration not stated) | ClpP1P2: -12.33%; PfKRS1: 0.145%; MtTrpRS: -5.018%; LiHisRS: 10.91%; TcHisRS: 3.509%; Leishmania in macrophages: 24.71%
* O=C(Cn1ccnc1)N1C[C@@H]2CC[C@H](Oc3ccccc3Cl)[C@@H]2C1 | ClpP1P2: -14.57%; PfKRS1: -3.146%; MtTrpRS: 0.5853%; LiHisRS: 8.333%; TcHisRS: 4.865%
* O=C(NCC1CCC2(CC1)OCCO2)c1cccc(-n2cccn2)c1 | ClpP1P2: -4.054%; PfKRS1: -3.684%; MtTrpRS: 3.43%; LiHisRS: -3.297%; TcHisRS: 5.941%; Leishmania in macrophages: 10.28%
* CN(C)CCNC(=O)c1cnc2c(c1)nc(-c1ccccc1Cl)n2C | ClpP1P2: 1.11%; PfKRS1: 4.413%; MtTrpRS: -0.5029%; LiHisRS: 16.98%; TcHisRS: 1.695%; Leishmania in macrophages: 27.39%
* [H][C@@]12CN(Cc3cccnc3)C[C@]1([H])OCC(=O)N2 | Leishmania in macrophages: 18.18%
* CC/C=C(/C)C(=O)NS(=O)(=O)c1ccc(C#N)c(C(F)(F)F)c1 | ClpP1P2: -4.039%; PfKRS1: 4.586%; MtTrpRS: 0%; LiHisRS: 12.2%; TcHisRS: 8.173%; Leishmania in macrophages: -13.71%
* Cc1nc(C(C)(C)C)sc1C(=O)NCCNc1ncccn1 | ClpP1P2: -13.92%; PfKRS1: 0%; MtTrpRS: -6.541%; LiHisRS: 13.16%; TcHisRS: 2.312%; Leishmania in macrophages: -15.76%
* Cc1cnn(CCCNC(=O)NCCC(=O)Nc2ccccc2)c1 | ClpP1P2: -4.994%; PfKRS1: 4.87%; MtTrpRS: 0.9181%; LiHisRS: 15.66%; TcHisRS: 10.45%; Leishmania in macrophages: 20.84%
* [H][C@@]12CCCN1CCCN(Cc1cc3cccc(C)c3[nH]c1=O)C2 | Leishmania in macrophages: -4.533%
* CCC(O)CN1CCN(C(=O)c2cccc3c2OCC(=O)N3)CC1 (configuration not stated) | ClpP1P2: -1.265%; PfKRS1: 0.5051%; MtTrpRS: 0.89%; LiHisRS: 21.35%; TcHisRS: 6.736%; Leishmania in macrophages: 5.185%
* CN(CC(=O)N1CCCN(Cc2cscn2)CC1)c1cnccn1 | ClpP1P2: -7.227%; PfKRS1: 1.929%; MtTrpRS: 0.3668%; LiHisRS: -3.125%; TcHisRS: 5.703%; Leishmania in macrophages: -9.936%
* O=C(NCc1cnn2ccccc12)NC1CCCC1 | ClpP1P2: -6.071%; PfKRS1: -0.4558%; MtTrpRS: 0.8258%; LiHisRS: 11.11%; TcHisRS: 0.5128%; Leishmania in macrophages: 23.62%
* CCc1nc(CN(C)Cc2ncc(-c3cccs3)o2)cs1 | ClpP1P2: -18.97%; PfKRS1: 2.131%; MtTrpRS: -6.783%; LiHisRS: 4.202%; TcHisRS: -5.882%; Leishmania in macrophages: -2.705%
* CCc1nc2c(N3CCCC(c4nccn4CCOC)C3)ncnc2o1 (configuration not stated) | ClpP1P2: 5.188%; PfKRS1: 2.684%; MtTrpRS: 1.826%; LiHisRS: 16.67%; TcHisRS: 5.063%; Leishmania in macrophages: -17.78%
* Cc1ccccc1-n1cc(CNc2ncnc3c2CCNCC3)cn1 | ClpP1P2: -11.39%; PfKRS1: 0.5949%; MtTrpRS: 0.712%; LiHisRS: 7.692%; TcHisRS: 14.85%; Leishmania in macrophages: 29.71%
* Cc1cc(C2CCCN2C(=O)Cn2c(C)cc(=O)c3ccccc32)on1 (configuration not stated) | ClpP1P2: -20.48%; PfKRS1: 2.254%; MtTrpRS: -1.037%; LiHisRS: 10%; TcHisRS: 3.614%; Leishmania in macrophages: 5.287%
* COc1c(C)cnc(CNCC(C)C)c1C | ClpP1P2: -9.996%; PfKRS1: 3.329%; MtTrpRS: 2.72%; LiHisRS: 3.448%; TcHisRS: 1.739%; Leishmania in macrophages: -22.02%
* COC(=O)Cc1cn2cc(C(F)(F)F)ccc2n1 | ClpP1P2: -1.739%; PfKRS1: 1.35%; MtTrpRS: 8.863%; LiHisRS: 2.083%; TcHisRS: 1.042%; Leishmania in macrophages: -1.211%
* N#Cc1cc2c(nc1SCc1cc(O)nc(O)n1)CCCCC2 | ClpP1P2: 3.59%; PfKRS1: 7.267%; LiHisRS: 14.43%; TcHisRS: 1.156%; Leishmania in macrophages: 11.84%
* Cc1cc(C(=O)N2CCCC2c2c(C)nn(C)c2C)no1 (configuration not stated) | ClpP1P2: -3.858%; PfKRS1: 2.429%; MtTrpRS: -3.45%; LiHisRS: 13.04%; TcHisRS: 3.38%; Leishmania in macrophages: 10.3%

The first 2 entries again:

| Compound | ClpP1P2 | PfKRS1 | MtTrpRS | LiHisRS | TcHisRS | Leishmania in macrophages |
|---|---|---|---|---|---|---|
| `CC(C)c1nc(C2CCCN(C(=O)Cn3ccccc3=O)C2)no1` (configuration not stated) | -12.33 | 0.145 | -5.018 | 10.91 | 3.509 | 24.71 |
| `O=C(Cn1ccnc1)N1C[C@@H]2CC[C@H](Oc3ccccc3Cl)[C@@H]2C1` | -14.57 | -3.146 | 0.5853 | 8.333 | 4.865 | - |